Data source: PubChem BioAssay AID1224830 (NIAID, 2016)

Test: 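Regulators of TLR4 signalling towards TNF-alpha in macrophage-like cells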 (primary screen)
Cell system: human THP-1 monocytic leukaemia cells, TNF dual-luciferase reporter clone, PMA-differentiated to macrophage-like cells
Reagent: siRNA pool against human genes, 50 nM
Time to read-out: LPS for 4 h, given about 3 days after siRNA transfection
Challenge: bacterial LPS (TLR4 ligand), 10 ng/ml
Measured: 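Ratio of firefly to renilla light, scaled to the plate median and expressed as a robust z-score per replicate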
Scale: TNF reporter robust z-score: higher = stronger TNF reporter response to LPS
Active means: 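a well is active when its z-score exceeds 2.8 or falls below -1.5; control wells carry no call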
The whole screen tested about 18,000 reagents; this is an unselected part. About 2,900 of all reagents (16%) were called active. 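Calls are made per well; low scores hint the gene aids the LPS response, high scores that it dampens it.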 Repeated entries: four replicate wells of each siRNA pool. Reagent sequences are not shown.

Against PHKG2 (phosphorylase kinase catalytic subunit gamma 2), the values are TNF reporter robust z-score 0.71; inactive. Depletion of PHKG2 (phosphorylase kinase catalytic subunit gamma 2) resulted in: TNF reporter robust z-score 0.53; inactive. PHKG2 (phosphorylase kinase catalytic subunit gamma 2) showed TNF reporter robust z-score 0.91; inactive. After knock-down of PHKG2 (phosphorylase kinase catalytic subunit gamma 2), the record shows TNF reporter robust z-score 1.44; inactive. With knock-down of TMIGD1 (transmembrane and immunoglobulin domain containing 1) the results were TNF reporter robust z-score -0.55; inactive. After knock-down of TMIGD1 (transmembrane and immunoglobulin domain containing 1) the results were TNF reporter robust z-score -0.08; inactive.

With knock-down of TMIGD1 (transmembrane and immunoglobulin domain containing 1) the results were TNF reporter robust z-score -0.42; inactive. With knock-down of TMIGD1 (transmembrane and immunoglobulin domain containing 1) the results were TNF reporter robust z-score -0.7; inactive. With knock-down of ETFBKMT, the screen gave TNF reporter robust z-score 0.44; inactive. After knock-down of ETFBKMT, the screen gave TNF reporter robust z-score 1.8; inactive. For ETFBKMT the deposit lists TNF reporter robust z-score -0.32; inactive. Silencing of ETFBKMT came out at: TNF reporter robust z-score -0.37; inactive.

After knock-down of FMR1 (fragile X messenger ribonucleoprotein 1) the results were TNF reporter robust z-score -0.41; inactive. FMR1 (fragile X messenger ribonucleoprotein 1) scored TNF reporter robust z-score 0.3; inactive. Silencing of FMR1 (fragile X messenger ribonucleoprotein 1) resulted in: TNF reporter robust z-score -0.87; inactive. With knock-down of FMR1 (fragile X messenger ribonucleoprotein 1) the results were TNF reporter robust z-score 1.15; inactive. After knock-down of SLC19A4P the results were TNF reporter robust z-score 0.06; inactive. Knock-down of SLC19A4P gave: TNF reporter robust z-score 0.99; inactive.

SLC19A4P scored TNF reporter robust z-score 0.55; inactive. With knock-down of ENGASE (endo-beta-N-acetylglucosaminidase), the screen gave TNF reporter robust z-score -0.74; inactive. After knock-down of ENGASE (endo-beta-N-acetylglucosaminidase), the record shows TNF reporter robust z-score 0.52; inactive. With knock-down of ENGASE (endo-beta-N-acetylglucosaminidase), the screen gave TNF reporter robust z-score -0.63; inactive. ENGASE (endo-beta-N-acetylglucosaminidase) scored TNF reporter robust z-score 1.24; inactive. Against BCL2 (BCL2 apoptosis regulator), the entry reads TNF reporter robust z-score 3; active.

BCL2 (BCL2 apoptosis regulator) showed TNF reporter robust z-score 3.01; active. BCL2 (BCL2 apoptosis regulator) scored TNF reporter robust z-score 2.8; active. After knock-down of BCL2 (BCL2 apoptosis regulator), the screen gave TNF reporter robust z-score 3.76; active. Against SERPINE1 (serpin family E member 1), the values are TNF reporter robust z-score -0.16; inactive. With knock-down of SERPINE1 (serpin family E member 1), the screen gave TNF reporter robust z-score 1.31; inactive. SERPINE1 (serpin family E member 1) showed TNF reporter robust z-score 2.07; inactive.

After knock-down of SERPINE1 (serpin family E member 1), the record shows TNF reporter robust z-score -0.69; inactive. With knock-down of SCARA3 (scavenger receptor class A member 3) the results were TNF reporter robust z-score -0.03; inactive. Depletion of SCARA3 (scavenger receptor class A member 3) resulted in: TNF reporter robust z-score -0.1; inactive. After knock-down of SCARA3 (scavenger receptor class A member 3), the record shows TNF reporter robust z-score -0.36; inactive. After knock-down of SCARA3 (scavenger receptor class A member 3), the record shows TNF reporter robust z-score -0.34; inactive. Against DOCK1 (dedicator of cytokinesis 1) the deposit lists TNF reporter robust z-score 0.32; inactive.

DOCK1 (dedicator of cytokinesis 1) gave TNF reporter robust z-score 0.35; inactive. DOCK1 (dedicator of cytokinesis 1) showed TNF reporter robust z-score 0.86; inactive. Silencing of DOCK1 (dedicator of cytokinesis 1) gave: TNF reporter robust z-score -0.19; inactive. After knock-down of AWAT1 (acyl-CoA wax alcohol acyltransferase 1) the results were TNF reporter robust z-score 0.2; inactive. Depletion of AWAT1 (acyl-CoA wax alcohol acyltransferase 1) gave: TNF reporter robust z-score 0.42; inactive. After knock-down of AWAT1 (acyl-CoA wax alcohol acyltransferase 1) the results were TNF reporter robust z-score 0.66; inactive.

Knock-down of AWAT1 (acyl-CoA wax alcohol acyltransferase 1) gave: TNF reporter robust z-score 0.08; inactive. For ACSM1 (acyl-CoA synthetase medium chain family member 1) the deposit lists TNF reporter robust z-score -0.51; inactive. Silencing of ACSM1 (acyl-CoA synthetase medium chain family member 1) resulted in: TNF reporter robust z-score -0.25; inactive. Silencing of ACSM1 (acyl-CoA synthetase medium chain family member 1) came out at: TNF reporter robust z-score -0.49; inactive. ACSM1 (acyl-CoA synthetase medium chain family member 1) gave TNF reporter robust z-score -0.79; inactive. SLC24A5 showed TNF reporter robust z-score -0.88; inactive.

Silencing of SLC24A5 came out at: TNF reporter robust z-score 0.67; inactive. SLC24A5 gave TNF reporter robust z-score 0.16; inactive. With knock-down of SLC24A5, the record shows TNF reporter robust z-score 0.8; inactive. After knock-down of AASDHPPT, the record shows TNF reporter robust z-score 0.91; inactive. For AASDHPPT, the values are TNF reporter robust z-score 1.47; inactive. After knock-down of AASDHPPT the results were TNF reporter robust z-score 1.23; inactive.

Depletion of AASDHPPT came out at: TNF reporter robust z-score 1.95; inactive. ZNF792 (zinc finger protein 792) showed inactive. For SUSD4 (sushi domain containing 4) the deposit lists TNF reporter robust z-score -1.49; inactive. SUSD4 (sushi domain containing 4) scored TNF reporter robust z-score 0; inactive. With knock-down of SUSD4 (sushi domain containing 4) the results were TNF reporter robust z-score -1.04; inactive. SUSD4 (sushi domain containing 4) gave TNF reporter robust z-score -0.46; inactive.

Part of the list above in another layout:
| target gene | TNF reporter robust z-score | outcome |
| --- | --- | --- |
| AWAT1 (acyl-CoA wax alcohol acyltransferase 1) | 0.2 | inactive |
| AWAT1 (acyl-CoA wax alcohol acyltransferase 1) | 0.42 | inactive |
| AWAT1 (acyl-CoA wax alcohol acyltransferase 1) | 0.66 | inactive |
| AWAT1 (acyl-CoA wax alcohol acyltransferase 1) | 0.08 | inactive |
| ACSM1 (acyl-CoA synthetase medium chain family member 1) | -0.51 | inactive |
| ACSM1 (acyl-CoA synthetase medium chain family member 1) | -0.25 | inactive |
| ACSM1 (acyl-CoA synthetase medium chain family member 1) | -0.49 | inactive |
| ACSM1 (acyl-CoA synthetase medium chain family member 1) | -0.79 | inactive |
| SLC24A5 | -0.88 | inactive |
